Results are given in words; binding and its absence hold for the method and conditions named. In cells and extracts the contact can be indirect. Some entries that bind do so weakly or less than the wild type.

The source of these data is article PMC3741160.

For this test, the target named is T1, adipose triglyceride lipase (mouse (endogenous in mouse liver)) (UniProt Q8BJ56).
T1 sequence: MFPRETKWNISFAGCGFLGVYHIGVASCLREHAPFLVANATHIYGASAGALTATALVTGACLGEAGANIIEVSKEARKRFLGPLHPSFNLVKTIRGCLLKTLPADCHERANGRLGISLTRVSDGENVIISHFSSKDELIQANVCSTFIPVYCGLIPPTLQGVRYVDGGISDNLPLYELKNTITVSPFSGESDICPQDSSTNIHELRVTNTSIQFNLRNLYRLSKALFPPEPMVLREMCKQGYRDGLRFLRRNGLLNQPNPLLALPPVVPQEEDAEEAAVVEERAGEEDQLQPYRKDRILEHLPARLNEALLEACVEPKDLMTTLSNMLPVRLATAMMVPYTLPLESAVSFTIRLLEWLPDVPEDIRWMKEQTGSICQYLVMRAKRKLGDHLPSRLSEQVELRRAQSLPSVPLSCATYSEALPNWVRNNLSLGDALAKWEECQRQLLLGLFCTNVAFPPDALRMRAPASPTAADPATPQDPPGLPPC
As to the kind of experiment: co-IP; 300 µg total protein extract from livers of mice injected with Ad-G0S2 (4 days); immunoprecipitated with anti-ATGL antibody or pre-immune IgG on Dynabeads; western blot with anti-G0S2. For orientation: A western blot detects proteins with antibodies after separation by electrophoresis.

B1: G0/G1 switch gene 2 (protein, UniProt P27469 1-103)
chain: METVQELIPLAKEMMAQKRKGKMVKLYVLGSVLALFGVVLGLMETVCSPFTAARRLRDQEAAVAELQAALERQALQKQALQEKGKQQDTVLGGRALSNRQHAS
As to B1, the binding result was “binds”.
